# Counter-ions that a name gives are not always drawn. Out of some 5,300 compounds screened, about 130 (2.5%) showed an effect of 50% or more. The list shows a part of the results.
# System: M. mycetomatis strain mm55
# Settings: primary screen, metabolic activity vs growth control; 96 h, 2 µM; inhibitor
row,Compound,% viability [%]
1,"COc1ncc(-c2ccc3nccc(-c4ccnnc4)c3c2)cc1NS(=O)(=O)c1ccc(F)cc1F [ONC0004334, omipalisib gsk2126458 gsk458]",126.5
2,"CC(C)(C)/[N+]([O-])=C/c1ccc(S(=O)(=O)O)cc1S(=O)(=O)O [ONC0005107, nxy059 disufenton sodium]",119.4
3,"CN1CCC(=C2c3ccccc3CCc3sccc32)CC1 [ONC0004270, pizotyline malate]",77.97
4,"CCc1cc(-c2n[nH]c(C)c2-c2ccc3c(c2)OCCO3)c(O)cc1O [ONC0003616, cct018159]",49.48
5,"COc1ccc(N2CCOCC2)c2sc(NC(=O)N3CCC(C)(O)CC3)nc12 [ONC0001313, tozadenant]",78.27
6,"N=C(N)NCCCCN [ONC0003495, agmatine sulfate]",64.29
7,"CN1CCOC(c2ccccc2)c2ccccc2C1 (centres unmarked) [ONC0000697, nefopam]",116
8,"C[C@H](CSC(=O)c1ccccc1)C(=O)N1C[C@@H](Sc2ccccc2)C[C@H]1C(=O)O [ONC0002285, zofenopril calcium]",89.14
9,"O=C(Cc1ccc(Cl)c(Cl)c1)N1CCCCC1CN1CCCC1 (centres unmarked) [ONC0003117, brl52537]",77.93
10,"Brc1c(Br)c(Br)c2[nH]nnc2c1Br [ONC0003695, 4567tetrabromobenzotriazole]",61.11
11,"O=C1[C@H](CC[C@H](O)c2ccc(F)cc2)[C@@H](c2ccc(O)cc2)N1c1ccc(F)cc1 [ONC0003961, ezetimibe]",73.64
12,"c1cc(-c2cnn3cc(-c4ccc(OCCN5CCCCC5)cc4)cnc23)ccn1 [ONC0001536, dorsomorphin]",89.15
13,"O=S(=O)(O)c1cc(I)c(O)c2ncccc12 [ONC0004262, chiniofon]",59.44
14,"c1cc2c3c(c1)c1c(n3CCNC2)CCCC1 [ONC0000088, way629]",100.3
15,"O=C(c1cc(S(=O)(=O)Nc2ccccc2F)c(F)cc1Cl)N1CCN2CCC[C@@H]2C1 [ONC0001094, abt639]",70.25
16,"O=C(Cc1ccccc1)Nc1nc2ccc(Cl)cc2c2nc(-c3ccco3)nn12 [ONC0000800, mrs1220]",83.11
17,"CN1CCC(NC(=O)c2cc(-c3c(O)cc(O)cc3Oc3ccc([N+](=O)[O-])cc3)on2)CC1 [ONC0005119, nmse973]",137.1
18,"CC(C)NC[C@H](O)COc1cccc2[nH]ccc12 [ONC0002469, pindolol]",54.49
19,"CC(C)(N)c1cc(C(=O)N[C@@H]2CCc3ccc(Oc4ccnc5c4CCC(=O)N5)cc3C2)cc(C(F)(F)F)c1 [ONC0000152, ml786]",97.05
20,"Cc1cc(-c2ncc(CC(=O)Nc3ccc(-c4cnccn4)cn3)cc2C)ccn1 [ONC0005026, lgk974]",76.92
21,"C=CCNc1c(O)cc2c(O)c1C[C@@H](C)C[C@H](OC)[C@H](O)[C@@H](C)/C=C(\C)[C@H](OC(N)=O)[C@@H](OC)/C=C\C=C(/C)C(=O)N2 [ONC0000815, retaspimycin hydrochloride]",79.52

# Retrieved by compound from the list above, 2 records:
row,Compound,% viability [%]
17,"CN1CCC(NC(=O)c2cc(-c3c(O)cc(O)cc3Oc3ccc([N+](=O)[O-])cc3)on2)CC1 [ONC0005119, nmse973]",137.1
12,"c1cc(-c2cnn3cc(-c4ccc(OCCN5CCCCC5)cc4)cnc23)ccn1 [ONC0001536, dorsomorphin]",89.15

# Later entries

row,Compound,% viability [%]
1,"CNCC(O)c1ccc(O)cc1 (centres unmarked) [ONC0005413, oxedrine]",69.09
2,"CC(C)NCC(O)c1ccc(N)c(C#N)c1 (centres unmarked) [ONC0003014, cimaterol]",76.31
3,"CC(C)c1ccc(NC(=O)c2cccs2)c(-c2nc3ccccc3[nH]c2=O)c1 [ONC0000068, ml281]",104.2
4,"CC(COc1ccccc1Cc1ccccc1)N1CCCCC1 (centres unmarked) [ONC0000291, benproperine phosphate]",109.2
5,"CC(O)(P(=O)(O)O)P(=O)(O)O [ONC0003924, etidronate disodium]",67.43
6,"CCCCCCCCCCCCCC(=O)OC(C)C [ONC0002797, isopropyl myristate]",114
7,"Cc1n[nH]c(C)c1Cc1sc2c(c1C(=O)N1C[C@H](O)CO1)c(=O)n(C)c(=O)n2CC(C)C [ONC0001268, arc155858]",79.96
8,"CC(=C\c1ccc(Cl)cc1)/C(C)=N/O [ONC0000836, ap18]",83.86
9,"CCC1NC(=O)c2cc(S(N)(=O)=O)c(Cl)cc2N1 (centres unmarked) [ONC0002418, quinethazone]",111.4
10,"Nc1ncnc2c1C(=O)N(c1ccc([C@H]3CC[C@H](CC(=O)O)CC3)cc1)CCO2 [ONC0000931, pf04620110]",63.19
11,"COc1ccccc1N1CCN(CCCCNC(=O)c2ccc3ccccc3c2)CC1 [ONC0002951, bp897]",81.63
12,"Cc1ncc(COP(=O)(O)O)c(C=O)c1O [ONC0005433, mc1]",91.13
13,"Cc1ccc2c(=O)c3ccccc3n(CCCN)c2c1C [ONC0001338, er27319 maleate]",111.3
14,"CN(Cc1cnc2nc(N)nc(N)c2n1)c1ccc(C(=O)N[C@@H](CCC(=O)O)C(=O)O)cc1 [ONC0000455, methotrexate hydrate]",76.36
15,"CNC(C)CCC=C(C)C (centres unmarked) [ONC0002934, isometheptenemucate]",66.34
16,"O=C(COc1ccc(Cl)cc1)N1CCN(Cc2ccc3c(c2)OCO3)CC1 [ONC0003121, fipexide hydrochloride]",94.56
17,"CCN(CC)CCNc1ccc(CO)c2sc3ccccc3c(=O)c12 [ONC0002180, hycanthone]",64.05
18,"CCOc1ccc2nc3cc(N)ccc3c(N)c2c1 [ONC0004254, ethacridine lactate]",71.68
19,"CC(=O)OC[C@H]1O[C@@](COC(C)=O)(O[C@H]2O[C@H](COC(C)=O)[C@@H](OC(C)=O)[C@H](OC(C)=O)[C@H]2OC(C)=O)[C@@H](OC(C)=O)[C@@H]1OC(C)=O [ONC0002776, sucrose octaacetate]",73.57
20,"NC(=O)c1nc[nH]c1O [ONC0003682, 5hydroxy1himidazole4carboxamide]",60.3

# — PMC12670160, “A drug-repurposing screen of FDA- and EMA-approved drugs identifies two NF-κB inhibitors active against eumycetoma” (Journal of Antimicrobial Chemotherapy, 2025)
